Drawing on paper PMC11263418, this text covers binding for 1 molecule.

Results are given in words; binding and its absence hold for the method and conditions named. In cells and extracts the contact can be indirect. These calls come from enrichment with a bait or labelling near it, and not all partners need be listed.

This assay concerns the target T1, Membrane associated RING finger protein 5 (MARCH5) (human (in human OC cell lines)) (UniProt Q9NX47).
T1 sequence: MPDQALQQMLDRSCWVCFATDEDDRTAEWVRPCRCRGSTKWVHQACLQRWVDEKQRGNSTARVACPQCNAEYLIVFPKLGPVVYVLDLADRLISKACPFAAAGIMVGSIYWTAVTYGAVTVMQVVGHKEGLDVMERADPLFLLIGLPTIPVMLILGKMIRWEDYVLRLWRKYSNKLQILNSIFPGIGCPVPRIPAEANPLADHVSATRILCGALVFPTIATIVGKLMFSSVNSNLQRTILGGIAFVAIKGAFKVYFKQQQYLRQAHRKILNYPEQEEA
The assay can be described thus: affinity purification with mass spectrometry; co-immunoprecipitation of MARCH5 from OC cells followed by mass spectrometry (IP-MS); conditions not given.

B1: mitochondrial pyruvate carrier 1 (MPC1) (protein, UniProt Q9Y5U8 1-109)
chain: MAGALVRKAADYVRSKDFRDYLMSTHFWGPVANWGLPIAAINDMKKSPEIISGRMTFALCCYSLTFMRFAYKVQPRNWLLFACHATNEVAQLIQGGRLIKHEMTKTASA
B1: the binding result is reported as “binds”.
